The text below walks through data of publication doi:10.1101/410092.

No constants are given. Whether binding was seen depends on the method and setting. Binding seen in cells or lysates may run through a third protein. Some entries that bind do so weakly or less than the wild type. Tags and fused reporters may be left off the sequences shown.

Assay in all cases: co-IP
Experiment [1] has as its target T1, Unc93b1 triple-alanine mutant of amino acids 279-281, 3xFLAG-tagged (mouse) (UniProt Q8VCW4).
T1 sequence: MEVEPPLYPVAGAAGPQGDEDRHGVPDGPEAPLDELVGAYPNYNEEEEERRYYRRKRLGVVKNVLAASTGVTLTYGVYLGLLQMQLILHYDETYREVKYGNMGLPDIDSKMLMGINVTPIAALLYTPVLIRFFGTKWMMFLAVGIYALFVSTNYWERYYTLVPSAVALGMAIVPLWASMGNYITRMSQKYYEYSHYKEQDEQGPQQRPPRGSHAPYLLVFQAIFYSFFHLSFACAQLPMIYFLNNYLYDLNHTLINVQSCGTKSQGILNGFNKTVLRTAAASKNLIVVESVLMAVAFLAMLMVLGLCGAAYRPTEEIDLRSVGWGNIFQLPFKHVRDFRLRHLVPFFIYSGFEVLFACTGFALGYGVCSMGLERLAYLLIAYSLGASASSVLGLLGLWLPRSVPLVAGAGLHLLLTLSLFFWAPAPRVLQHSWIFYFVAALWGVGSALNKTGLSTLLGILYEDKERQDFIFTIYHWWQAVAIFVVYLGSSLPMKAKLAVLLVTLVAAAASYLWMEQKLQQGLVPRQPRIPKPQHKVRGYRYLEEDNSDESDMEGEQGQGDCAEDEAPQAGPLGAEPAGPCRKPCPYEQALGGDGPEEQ

Experiment [2] deals with T2, Unc93b1^N284A, 3xFLAG-tagged (mouse) (UniProt Q8VCW4).
T2 sequence: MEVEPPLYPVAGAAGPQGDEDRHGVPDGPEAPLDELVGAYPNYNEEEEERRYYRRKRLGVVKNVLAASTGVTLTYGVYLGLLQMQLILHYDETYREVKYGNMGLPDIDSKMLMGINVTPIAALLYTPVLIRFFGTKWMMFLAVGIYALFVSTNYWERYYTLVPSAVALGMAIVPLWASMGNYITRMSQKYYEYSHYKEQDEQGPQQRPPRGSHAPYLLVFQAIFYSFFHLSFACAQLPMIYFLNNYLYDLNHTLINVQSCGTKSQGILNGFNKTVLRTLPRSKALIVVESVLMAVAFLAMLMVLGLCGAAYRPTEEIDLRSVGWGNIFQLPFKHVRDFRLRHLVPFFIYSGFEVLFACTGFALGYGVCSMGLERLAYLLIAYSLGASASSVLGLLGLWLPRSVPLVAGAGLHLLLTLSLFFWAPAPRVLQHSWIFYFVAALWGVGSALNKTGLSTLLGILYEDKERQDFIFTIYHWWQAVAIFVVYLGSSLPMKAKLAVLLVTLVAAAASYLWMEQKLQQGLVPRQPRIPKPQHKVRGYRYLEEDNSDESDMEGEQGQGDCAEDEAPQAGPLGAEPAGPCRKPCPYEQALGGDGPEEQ

Experiment [3] addresses T3, Unc93b1 triple-alanine mutant of amino acids 276-278, 3xFLAG-tagged (mouse) (UniProt Q8VCW4).
T3 sequence: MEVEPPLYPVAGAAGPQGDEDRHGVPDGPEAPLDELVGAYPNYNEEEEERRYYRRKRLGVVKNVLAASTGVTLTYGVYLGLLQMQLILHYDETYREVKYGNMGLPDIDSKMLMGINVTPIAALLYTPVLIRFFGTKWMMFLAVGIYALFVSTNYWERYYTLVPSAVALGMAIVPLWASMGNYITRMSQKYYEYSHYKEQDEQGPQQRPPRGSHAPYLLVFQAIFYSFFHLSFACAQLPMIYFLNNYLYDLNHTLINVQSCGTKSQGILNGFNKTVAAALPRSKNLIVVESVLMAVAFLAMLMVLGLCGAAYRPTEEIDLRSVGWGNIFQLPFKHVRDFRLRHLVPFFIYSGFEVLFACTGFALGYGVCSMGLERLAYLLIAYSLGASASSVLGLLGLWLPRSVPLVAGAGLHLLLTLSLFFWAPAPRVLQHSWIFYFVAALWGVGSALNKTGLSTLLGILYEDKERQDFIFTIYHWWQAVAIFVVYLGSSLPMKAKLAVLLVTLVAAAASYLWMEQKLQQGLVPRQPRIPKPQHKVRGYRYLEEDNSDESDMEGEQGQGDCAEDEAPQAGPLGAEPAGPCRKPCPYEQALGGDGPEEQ

The target in experiment [4] is T4, Unc93b1^K283A, 3xFLAG-tagged (mouse) (UniProt Q8VCW4).
T4 sequence: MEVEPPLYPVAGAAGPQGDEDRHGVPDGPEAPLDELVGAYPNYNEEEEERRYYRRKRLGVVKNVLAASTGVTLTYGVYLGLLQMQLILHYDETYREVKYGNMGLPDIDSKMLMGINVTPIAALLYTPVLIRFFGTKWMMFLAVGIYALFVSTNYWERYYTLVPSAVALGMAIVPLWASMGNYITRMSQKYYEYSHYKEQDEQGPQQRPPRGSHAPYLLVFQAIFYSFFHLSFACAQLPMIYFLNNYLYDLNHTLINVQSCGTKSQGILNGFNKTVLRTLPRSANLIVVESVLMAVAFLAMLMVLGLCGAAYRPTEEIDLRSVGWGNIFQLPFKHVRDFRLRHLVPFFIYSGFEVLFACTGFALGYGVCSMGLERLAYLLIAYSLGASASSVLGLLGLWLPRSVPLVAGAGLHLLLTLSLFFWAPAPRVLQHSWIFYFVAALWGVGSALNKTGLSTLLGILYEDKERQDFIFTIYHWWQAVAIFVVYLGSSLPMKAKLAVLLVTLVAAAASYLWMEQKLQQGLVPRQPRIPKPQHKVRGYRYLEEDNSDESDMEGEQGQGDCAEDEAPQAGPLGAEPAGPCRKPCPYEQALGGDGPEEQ

B1: TLR9, HA-tagged (receptor, UniProt Q9EQU3 26-1032)
chain: LGTLPAFLPCELKPHGLVDCNWLFLKSVPRFSAAASCSNITRLSLISNRIHHLHNSDFVHLSNLRQLNLKWNCPPTGLSPLHFSCHMTIEPRTFLAMRTLEELNLSYNGITTVPRLPSSLVNLSLSHTNILVLDANSLAGLYSLRVLFMDGNCYYKNPCTGAVKVTPGALLGLSNLTHLSLKYNNLTKVPRQLPPSLEYLLVSYNLIVKLGPEDLANLTSLRVLDVGGNCRRCDHAPNPCIECGQKSLHLHPETFHHLSHLEGLVLKDSSLHTLNSSWFQGLVNLSVLDLSENFLYESITHTNAFQNLTRLRKLNLSFNYRKKVSFARLHLASSFKNLVSLQELNMNGIFFRLLNKYTLRWLADLPKLHTLHLQMNFINQAQLSIFGTFRALRFVDLSDNRISGPSTLSEATPEEADDAEQEELLSADPHPAPLSTPASKNFMDRCKNFKFTMDLSRNNLVTIKPEMFVNLSRLQCLSLSHNSIAQAVNGSQFLPLTNLQVLDLSHNKLDLYHWKSFSELPQLQALDLSYNSQPFSMKGIGHNFSFVTHLSMLQSLSLAHNDIHTRVSSHLNSNSVRFLDFSGNGMGRMWDEGGLYLHFFQGLSGLLKLDLSQNNLHILRPQNLDNLPKSLKLLSLRDNYLSFFNWTSLSFLPNLEVLDLAGNQLKALTNGTLPNGTLLQKLDVSSNSIVSVVPAFFALAVELKEVNLSHNILKTVDRSWFGPIVMNLTVLDVRSNPLHCACGAAFVDLLLEVQTKVPGLANGVKCGSPGQLQGRSIFAQDLRLCLDEVLSWDCFGLSLLAVAVGMVVPILHHLCGWDVWYCFHLCLAWLPLLARSRRSAQTLPYDAFVVFDKAQSAVADWVYNELRVRLEERRGRRALRLCLEDRDWLPGQTLFENLWASIYGSRKTLFVLAHTDRVSGLLRTSFLLAQQRLLEDRKDVVVLVILRPDAHRSRYVRLRQRLCRQSVLFWPQQPNGQGGFWAQLSTALTRDNRHFYNQNFCRGPTAE
For the molecule B1, the binding entry is recorded as “no binding” in experiment [1], “binds” in experiment [2], “no binding” in experiment [3] and “binds” in experiment [4].
